SMILES strings stand for the structures. This is one part of the list. These are further read-outs of the screen, such as a control signal, another cell line or another target. No call is given for them. The list favours compounds with an active or inconclusive main result. The note in brackets gives the kind of curve behind each potency; many fits are weak.

This assay in a line: IkB Signaling. The note with it: ABC-DLBCL IkBa-CBG/CBR dual luciferase ratio (green luciferase fused to IkBa over red control in OCI-Ly3 lymphoma cells), 4 h; measured here: control luc red channel unless noted. Summed up:
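Curves were fitted separately to fusion (green), unfused (red) and ratio luminescence, then classed by r2, magnitude and activity. Cells: OCI-Ly3, 4 h compound plus doxycycline at 37C; 10 uM MG-132 defined full response.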
Consider `COc1ccc(-c2cnn3c(C)cc(C)nc23)cc1OC`, for which the AC50 (usually the midpoint of the concentration-response curve, whichever way the signal moves) was 2 µM [rising, partial curve, poor fit].

Turning to `CCOc1ccc(-c2nc(SCC(=O)NC3CCCC3)c(-c3ccccc3)[nH]2)cc1OC`, the AC50 is 12.6 µM [falling, partial curve].

For `COc1ccc(-c2nnc(SCc3cccc(Cl)c3)o2)cc1`, the half-maximal activity concentration (AC50) was 0.0251 µM [rising, full curve, poor fit].

Regarding `COc1ccc(NC(=O)c2c(NC(=O)c3ccc(Br)cc3)sc3c2CCCC3)cc1`, the AC50 was 1 µM [falling, full curve].

Regarding `Cc1ccc(O)c(NC(=O)c2cc(-c3ccccc3O)no2)c1`, the AC50 is 39.8 µM [falling, single point].

As to `CCOc1ccccc1NC(=O)Cc1noc2ccc(C)cc12`, the half-maximal activity concentration (AC50) was 39.8 µM [falling, single point].

As for `CCOc1ccc2nc(NC(=O)c3nc(SC)ncc3Cl)sc2c1`, the AC50 is 0.0631 µM [falling, full curve, poor fit].

In the case of `COc1cc(NC(=O)c2ccco2)c(OC)cc1NC(=O)c1cc(OC)c(OC)c(OC)c1`, the AC50 is 3.16 µM [falling, partial curve].

Regarding `O=C(Cn1cnc2ccccc21)OCC(=O)N1CCc2ccccc2C1`, the half-maximal activity concentration (AC50) was 5.01 µM [rising, single point].

As to `COc1cc(NC(=O)c2cn(C3CCCC3)c(=O)c3c2c2ccccc2n3C)cc(OC)c1OC`, the AC50 is 7.94 µM [falling, full curve].

Turning to `CC(=O)C1=C(c2ccc(Cl)cc2)N(C(C)=O)n2c(nnc2C2CCCCC2)S1`, the AC50 was 25.1 µM [falling, partial curve].

Take `Cc1ccc(Cl)cc1N(C)C(=O)c1cn(C2CCCCC2)c(=O)c2c1c1ccccc1n2C`: the concentration at half-maximal activity (AC50) is 25.1 µM [falling, partial curve].

With `Cc1ccc(N(CC(=O)Nc2cccc(Cl)c2)S(=O)(=O)c2cccs2)cc1`, the AC50 is 6.31 µM [falling, partial curve].

On to `Cc1ccc2c(c1)N(CCC(=O)NCc1ccccc1Cl)C(=O)CO2`, for which the AC50 was 39.8 µM [falling, single point].

Turning to `Cc1ccc2onc(CC(=O)Nc3ccc(C(C)C)cc3)c2c1`, the concentration at half-maximal activity (AC50) was 10 µM [falling, partial curve].

For the compound `O=c1c2oc3ccccc3c2n(Cc2ccccc2F)c(=O)n1Cc1ccccc1`, the AC50 is 0.2 µM [rising, full curve].

Turning to `COc1ccc(N(C(=O)c2cccc(C)c2)S(=O)(=O)c2ccc(Cl)cc2)cc1`, the half-maximal activity concentration (AC50) is 3.98 µM [falling, full curve, poor fit].

For the compound `Cc1c(NC(=O)Nc2ccccc2C(F)(F)F)sc2nc3n(c(=O)c12)CCC(C)CC3` (stereo unspecified), the AC50 was 15.8 µM [falling, partial curve].

Consider `COc1ccc2nc(N(Cc3cccnc3)C(=O)C3CCCCC3)sc2c1`, for which the AC50 is 39.8 µM [falling, single point].

For `COc1cccc(C2C(C(=O)Nc3ccc(C)cc3C)=C(C)Nc3nc4ccccc4n32)c1OC` (stereo unspecified), the half-maximal activity concentration (AC50) is 25.1 µM [falling, partial curve, poor fit].

`CC1(C)C(=O)N(CC(=O)Nc2ccc(Br)cc2F)c2ccccc21`: the concentration at half-maximal activity (AC50) is 20 µM [falling, partial curve, poor fit].

In the case of `C=C(C)Cn1c(=O)c2c(nc3n2CCN3c2ccc(F)cc2)n(C)c1=O`, the concentration at half-maximal activity (AC50) is 39.8 µM [falling, single point].

As for `CCOc1ccc(NCc2cccn2-c2nnc(N3CCC(C(=O)NCCOC)CC3)s2)cc1`, the AC50 was 31.6 µM [falling, single point].

Turning to `CCOc1ccc(-c2nc(Cn3ccn4nc(-c5ccc(OCC)c(Cl)c5)cc4c3=O)c(C)o2)cc1`, the half-maximal activity concentration (AC50) is 0.2 µM [rising, full curve].

`Cc1ccccc1Nc1cc(C(=O)NCc2cccs2)c2ccccc2n1`: the half-maximal activity concentration (AC50) is 20 µM [falling, partial curve].

As for `COc1ccc(C)cc1N(C)C(=O)c1c2c(nc3ccccc13)C(=O)N(C1CCCCC1)C2`, the concentration at half-maximal activity (AC50) is 12.6 µM [falling, single point].

Consider `Cc1cccc(OCCn2c(SCC(=O)O)nc3ccccc32)c1`, for which the concentration at half-maximal activity (AC50) is 0.158 µM [rising, full curve, poor fit].

For `COc1ccc(Nc2ncc(C(=O)N3CCN(c4ccc(F)cc4)CC3)c3ccccc23)cc1`, the AC50 is 7.94 µM [falling, partial curve].

With `CCOC(=O)CCSc1nnc(-c2cccnc2)n1-c1ccccc1OC`, the half-maximal activity concentration (AC50) was 2.51 µM [falling, partial curve].

On to `Cc1ccsc1C(=O)OCC(=O)c1cc2ccccc2o1`, for which the AC50 was 31.6 µM [falling, partial curve].

For `COC(=O)c1ccc(NC(=O)c2ccccc2NS(C)(=O)=O)cc1`, the concentration at half-maximal activity (AC50) is 20 µM [falling, partial curve].

For `O=C(CN1C(=O)CCc2cc(S(=O)(=O)N3CCOCC3)ccc21)Nc1cccc(C(F)(F)F)c1`, the AC50 was 25.1 µM [falling, single point].

As for `CCOc1cccc(C(=O)Nc2cc(-c3ccc(C)cc3)no2)c1`, the concentration at half-maximal activity (AC50) was 3.98 µM [falling, partial curve].

In the case of `CCCCCCOc1ccc(C2C(=O)N(C3CCCCC3)CC(=O)N2CCCC)cc1` (stereo unspecified), the half-maximal activity concentration (AC50) is 15.8 µM [falling, partial curve].

Turning to `COc1ccc(NC(=O)CNC(=O)Cn2c(C)cc3ccccc3c2=O)cc1OC`, the AC50 was 5.01 µM [falling, single point].

As to `O=C(Nc1sc2c(c1C(=O)N1CCCCC1)CCCC2)c1ccccc1Cl`, the AC50 is 20 µM [falling, single point].

With `CCCS(=O)(=O)N1CCCC(C(=O)NCCOC)C1` (stereo unspecified), the half-maximal activity concentration (AC50) is 31.6 µM [rising, single point].

`CCOC(=O)c1c(NC(=O)c2cccs2)sc2c1CCN(C(=O)OCC)C2`: the concentration at half-maximal activity (AC50) is 3.98 µM [falling, full curve, poor fit].

For the compound `O=C1c2ccccc2C(=O)N1SC1CCCCC1`, the AC50 was 39.8 µM [falling, single point].

As for `CCCCN(CCCC)C1=C(C(=O)c2ccccc2)N(C)S(=O)(=O)c2ccccc21`, the concentration at half-maximal activity (AC50) was 39.8 µM [falling, single point].

Take `O=C(NCc1ccccc1)c1c[nH]c2ccc(S(=O)(=O)Nc3ccc4c(c3)OCCO4)cc2c1=O`: the concentration at half-maximal activity (AC50) is 10 µM [falling, partial curve].

For the origin of these results see PubChem BioAssay AID445 (National Center for Advancing Translational Sciences (NCATS), 2006).
